This data set in a line: peptide synthesis. The note with it: whole synthesis.

The values that follow come from patent US20210137809A1 (Biosolution Co., Ltd, priority 2017, published 2021).

In the case of “Arg-Pro-Lys-Pro-Gln-Gln-Phe-Phe-Gly-Leu-Met-NH2”, the “final purity (method not given)” value is given as 85% or more.
